# Laboratory results published in publication PMC7417480.
# The chains behind the UniProt entries cited, without tags or fusion partners.
# UniProt P0DMV8: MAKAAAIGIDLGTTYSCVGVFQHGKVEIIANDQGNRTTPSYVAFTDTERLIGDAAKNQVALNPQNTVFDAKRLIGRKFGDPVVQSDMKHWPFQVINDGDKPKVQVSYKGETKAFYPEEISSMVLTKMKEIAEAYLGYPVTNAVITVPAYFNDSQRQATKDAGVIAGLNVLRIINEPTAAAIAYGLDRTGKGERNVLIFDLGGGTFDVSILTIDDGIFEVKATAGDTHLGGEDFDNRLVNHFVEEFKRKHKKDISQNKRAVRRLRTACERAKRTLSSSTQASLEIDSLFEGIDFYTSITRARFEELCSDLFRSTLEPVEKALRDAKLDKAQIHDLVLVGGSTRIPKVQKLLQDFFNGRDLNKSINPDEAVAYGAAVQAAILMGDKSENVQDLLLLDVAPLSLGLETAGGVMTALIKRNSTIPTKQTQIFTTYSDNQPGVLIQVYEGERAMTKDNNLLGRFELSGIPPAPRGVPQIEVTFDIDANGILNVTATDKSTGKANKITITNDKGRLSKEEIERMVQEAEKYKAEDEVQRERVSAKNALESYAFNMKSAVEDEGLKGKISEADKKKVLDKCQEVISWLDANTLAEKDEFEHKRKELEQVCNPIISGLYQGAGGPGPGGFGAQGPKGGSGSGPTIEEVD
# These are yes or no findings as the source states them, for the method shown. In cells and extracts the contact can be indirect. Here binding means that the protein was enriched with, or labelled near, the bait; the list need not be complete. Tags and fused reporters may be left off the sequences shown.
# Target: T1, GFP-BAG5 (UniProt Q9UL15)
# T1 sequence: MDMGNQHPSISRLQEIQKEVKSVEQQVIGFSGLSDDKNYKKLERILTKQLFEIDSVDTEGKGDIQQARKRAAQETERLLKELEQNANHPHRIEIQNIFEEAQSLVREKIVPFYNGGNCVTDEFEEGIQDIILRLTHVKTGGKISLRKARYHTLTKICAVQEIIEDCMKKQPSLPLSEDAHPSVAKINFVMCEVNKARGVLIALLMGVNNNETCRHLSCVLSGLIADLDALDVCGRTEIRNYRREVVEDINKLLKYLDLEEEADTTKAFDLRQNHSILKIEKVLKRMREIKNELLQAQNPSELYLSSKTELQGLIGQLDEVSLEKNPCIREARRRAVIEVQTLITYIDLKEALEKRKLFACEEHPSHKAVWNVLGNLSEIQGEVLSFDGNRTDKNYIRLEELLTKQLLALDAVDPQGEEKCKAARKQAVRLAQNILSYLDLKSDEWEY
# Experiment: affinity purification with mass spectrometry; GFP-trap beads with 1 mg lysate (RIPA buffer) of H4 lines stably expressing GFP, GFP-BAG5 or GFP-BAG5_(DARA), 2 h at 4°C, three RIPA washes, LTQ-Orbitrap MS
substance,measurement,value
HSPA1A (from UniProt P0DMV8 1-641),binding,binds
p62 (from UniProt Q13501 1-440),binding,binds
